{
  "sequences": {"note": "Protein sequences, listed by entry. Tags and fused reporters are not part of them. Lines headed by an entry give the natural chain unless they say otherwise; changes in a name come on top. Chains listed by the source or under a name are the forms on record and can include a tag or linker. Residues count along the entry.", "human STK19 (residues 31-254) C116S/C136S/C240S (P49842-4, form named)": "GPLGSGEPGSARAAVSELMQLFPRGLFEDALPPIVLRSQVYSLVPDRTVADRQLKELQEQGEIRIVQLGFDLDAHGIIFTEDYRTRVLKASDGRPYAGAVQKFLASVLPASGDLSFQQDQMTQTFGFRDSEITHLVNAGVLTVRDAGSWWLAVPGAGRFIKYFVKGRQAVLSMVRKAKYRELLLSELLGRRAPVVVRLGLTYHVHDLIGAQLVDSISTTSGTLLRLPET"},
  "source": "paper PMC11189558",
  "about": "“Mutations found in cancer patients compromise DNA binding of the winged helix protein STK19”",
  "molecular_target": "human STK19 (residues 31-254) C116S/C136S/C240S (human) (UniProt P49842)",
  "experiment": "SEC; gel filtration profiles of the C116S/C136S/C240S protein compared with the wild-type protein; both purified",
  "note": "These are yes or no findings as the source states them, for the method shown.",
  "data": [
    {"substance": "human STK19 (residues 31-254) C116S/C136S/C240S (from UniProt P49842-4 31-254) (domain or fragment)", "values": [
      {"measurement": "binding", "value": "no binding"}
    ]}
  ]
}
